Our source for the Prob-Naive and Prob-Train values is the supplement of paper PMC10727501.

This is one part of the list. Repeats in this data set agree poorly, so a single value says little.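 Free-swimming zebrafish larvae were scored for O-bend response probability to dark flashes (naive: first five; training: remaining flashes of four 60-flash blocks; test: later 60-flash block) and for turning toward alternating leftward/rightward LED motion (OMR). Six treated larvae were compared with sixty 0.1% DMSO controls; |SSMD|≥2 defined a hit.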

One assay concerns Danio rerio larvae (5 dpf, TLF). The experiment in a line: Prob-Naive (SSMD vs DMSO vehicle); higher = higher than vehicle (e.g. higher dark-flash O-bend response probability, or better optomotor performance). The conditions noted are these: 10 µM; pre-incubation: 30-90 min.
`C[C@@H]1O[C@@H](OC[C@H]2O[C@@H](Oc3c(-c4ccc(O)c(O)c4)oc4cc(O)cc(O)c4c3=O)[C@@H](O)[C@@H](O)[C@@H]2O)[C@@H](O)[C@H](O)[C@H]1O` [Rutin] came in with a Prob-Naive of 0.516. Same read-out and setting: the same measure for `OCC(CO)N[C@H]1C[C@@](O)(CO)[C@@H](O)[C@H](O)[C@H]1O` [Voglibose]: -0.478. On the same count and under the same terms, under `CC(C)Cn1cnc2c(N)nc3ccccc3c21` [Imiquimod] stands 0.459; under `Cn1cc(C2=C(c3ccc(Cl)cc3Cl)C(=O)NC2=O)c2ccccc21`, 0.147.

The test system is the same in a further assay. The experiment in a line: Prob-Train (SSMD vs DMSO vehicle); higher = higher than vehicle (e.g. higher dark-flash O-bend response probability, or better optomotor performance). The conditions noted are these: 10 µM; pre-incubation: 30-90 min.
`CCc1cc(C(N)=S)ccn1` [Ethionamide]: the Prob-Train stood at 0.414. On the same count and under the same terms, under `COc1ccc(-c2oc3c(CC=C(C)C)c(OC4O[C@H](CO)[C@@H](O)[C@H](O)[C@H]4O)cc(O)c3c(=O)c2OC2O[C@@H](C)[C@H](O)[C@@H](O)[C@@H]2O)cc1` (stereo not given in full) [Icariin] stands 0.33.

Compound `CN(C)Cc1ccc(S(=O)(=O)n2ccc(/C=C/C(=O)NO)c2)cc1` [Resminostat] gave a Prob-Train of 0.274.

`NC(=O)Nc1sc(-c2ccc(F)cc2)cc1C(N)=O` returned a Prob-Train of 0.103. Consider `CC(=O)/N=c1\sc(S(N)(=O)=O)nn1C` [Methazolamide], for which the Prob-Train is -0.31. The same measure, in the same setting: under `CC(C)c1ccccc1Cc1cc(C(=O)Nc2ccc(S(=O)(=O)c3ccccc3C(C)(C)C)cc2)c(O)c(O)c1O` stands -0.517; under `COc1ccc([C@@H]2CC(=O)c3c(O)cc(O[C@@H]4O[C@H](CO[C@@H]5O[C@@H](C)[C@H](O)[C@H](O)[C@H]5O)[C@@H](O)[C@H](O)[C@H]4O)cc3O2)cc1O` [Hesperidin], -0.046. The compound `O=C(CCCCCN1C(=O)c2cccc3cccc(c23)C1=O)NO` [Scriptaid] had a Prob-Train of 0.354. The same measure, in the same setting: the same measure for `CC(=O)SCC(Cc1ccccc1)C(=O)NCC(=O)OCc1ccccc1` (stereo not given) [Racecadotril]: -0.444; for `COc1ccccc1OCC(O)CN1CCN(CC(=O)Nc2c(C)cccc2C)CC1.Cl.Cl` (stereo not given) [Ranolazine 2HCl]: 0.39; for `O=C([O-])c1ccccc1[O-].[Bi+3].[OH-]` [Bismuth Subsalicylate]: -0.121. Same read-out and setting: under `Nc1ccn([C@@H]2CS[C@H](CO)O2)c(=O)n1` [Lamivudine] stands 0.409; under `O=C(O)CCCc1c[nH]c2ccccc12` [3-Indolebutyric acid (IBA)], 0.266; under `CC(C)(C(=O)O)c1ccc(C(O)CCCN2CCC(C(O)(c3ccccc3)c3ccccc3)CC2)cc1.Cl` (stereo not given) [Fexofenadine HCl], -2.05. Compound `CN(C)CC/C=C1\c2ccccc2Sc2ccc(Cl)cc21` [Chlorprothixene] gave a Prob-Train of -1.04. Same read-out and setting: the same measure for `[I-].[K+]` [Potassium Iodide]: 0.238. In the case of `CN1CCCC1c1cccnc1.O=C(O)C(O)C(O)C(=O)O.O=C(O)C(O)C(O)C(=O)O` (stereo not given) [Nicotine Ditartrate], the Prob-Train was -0.00846. `CN(C)c1cc(NC(=O)CNC(C)(C)C)c(O)c2c1C[C@H]1C[C@H]3[C@@H](N(C)C)C(O)=C(C(N)=O)C(=O)[C@@]3(O)C(O)=C1C2=O` [Tigecycline] returned a Prob-Train of 0.25.

Compound `CC(c1cc2ccccc2s1)N(O)C(N)=O` (stereo not given) [Zileuton] gave a Prob-Train of -0.536. The same measure, in the same setting: under `Cc1nc2n(c(=O)c1CCN1CCC(c3noc4cc(F)ccc34)CC1)CCC[C@H]2O` [Paliperidone (Invega)] stands -0.619; under `CCCCNc1cc(C(=O)O)cc(S(N)(=O)=O)c1Oc1ccccc1` [Bumetanide], 0.0134. On the same count and under the same terms, under `CS(=O)(=O)N1CCc2c(-c3cnc(N)nc3)nc(N3CCOCC3)nc21` stands 0.227.

Consider `COc1ccc(NS(=O)(=O)c2ccc(N)cc2)nn1` [Sulfamethoxypyridazine], for which the Prob-Train amounted to 0.241. With `CC[C@H](NC(=O)[C@H](C)NC)C(=O)N1C[C@@H](O)C[C@H]1Cc1c(-c2[nH]c3cc(F)ccc3c2C[C@@H]2C[C@H](O)CN2C(=O)[C@H](CC)NC(=O)[C@H](C)NC)[nH]c2cc(F)ccc12` [Birinapant], the Prob-Train is -0.137. On the same count and under the same terms, under `Cc1cc(/N=N/c2ccc(S(=O)(=O)Nc3ccccn3)cc2)c(N)cc1O` stands -0.238; under `CNC(=O)c1ccc(N2C(=S)N(c3cnc(C#N)c(C(F)(F)F)c3)C(=O)C23CCC3)cc1F`, -0.599.
